{
  "source": "PubChem BioAssay (EPA / NIEHS)",
  "note": "The inconclusive results got no clear call from the source; some entries with a clear call stand among them for comparison. Potencies of inconclusive entries are doubtful fits and often do not repeat. The source made the active and inactive calls. The calls were made as follows: active = hit-call score of the fitted dose curve at least 0.9, where 1 is the maximum; inconclusive = response in the unintended direction; inactive = score below 0.9.",
  "data": [
    {"experiment": "CCTE_Mundy_HCI_hNP1_Pro_ResponderAvgInten: CCTE's Proliferation Assay in human neuroprogenitor cells, Mundy Lab (AID 2284224)", "method": "CCTE_Mundy_HCI_hNP1_Pro is a multiplexed, cell-based-readout assay that uses neural stem cells derived from a neuroepithelial cell lineage of WA09 embryonic cells with measurements taken at 26.25 hours after chemical dosing in a microplate: 96-well plate.CCTE_Mundy_HCI_hNP1_Pro_ResponderAvgInten is one of three components of the CCTE_Mundy_HCI_hNP1_Pro assay. It measures proliferation related to percentage of BrdU positive cells using High Content Imaging of fluorescently labelled markers.Data from the assay component CCTE_Mundy_HCI_hNP1_Pro_ResponderAvgInten was analyzed at the endpoint CCTE_Mundy_HCI_hNP1_Pro_ResponderAvgInten in the positive analysis fitting direction relative to DMSO as the negative control and baseline of activity. Using a type of growth reporter, loss -of-signal activity can be used to understand viability effects.\nHuman neural progenitor cells (hNP1) were obtained as cryopreserved cells from ArunA Biomedical, Athens Georgia. Cells are plated on pre-coated poly-L-ornithine/laminin clear bottom and opaque 96 well plates (day 0). Plates are placed in a 37 °C, 5% CO2 incubator for 40 to 44 hours at which time plates are removed from the incubator and 10 uL of a freshly made chemical solution is added to each well. Twenty hours after the addition of the chemicals, the clear plates are removed from the incubator and 11 uL of a BrdU solution is added to each well. The plates are returned to the incubator for four hours. After four hours, the plates are fixed with a 4% paraformaldehyde solution.", "values": [
      {"smiles": "C[C@@H]1CCO[C@H]2Cn3cc(C(=O)NCc4ccc(F)cc4F)c(=O)c(O)c3C(=O)N12", "AC50": "active: 15.6 µM"},
      {"smiles": "CC(C)c1nn(C(=O)NC(C)(C)C)c(=O)n1N", "outcome": "inactive"},
      {"smiles": "Cc1[nH]n(C)c(=O)c1C(=O)c1ccc(C(F)(F)F)cc1S(C)(=O)=O", "AC50": "inconclusive: 25 µM"},
      {"smiles": "CCCCCC=C(C)C(CC)CCO", "note": "(stereo unspecified)", "AC50": "inconclusive: 5 µM"},
      {"smiles": "CCc1ccccc1", "AC50": "inconclusive: 50 µM"},
      {"smiles": "N[C@@H](CCC(=O)O)C(=O)O", "AC50": "inconclusive: 15 µM"},
      {"smiles": "F", "AC50": "inconclusive: 0.0001 µM"},
      {"smiles": "CC(C)(C)NCC(O)c1cc(O)cc(O)c1", "note": "(stereo unspecified)", "AC50": "inconclusive: 0.000992 µM"},
      {"smiles": "CC1(C)S[C@@H]2[C@H](NC(=O)[C@H](N)c3ccc(O)cc3)C(=O)N2[C@H]1C(=O)O", "outcome": "inactive"},
      {"smiles": "CC(CNC(=S)[S-])NC(=S)[S-].[Zn+2]", "note": "(stereo unspecified)", "outcome": "inactive"},
      {"smiles": "CC(=O)N[C@@H](CC(=O)O)C(=O)O", "outcome": "inactive"},
      {"smiles": "CC(C)O", "outcome": "inactive"},
      {"smiles": "O=C(CC(=O)C(F)(F)F)C(F)(F)F", "AC50": "inconclusive: 0.452 µM"},
      {"smiles": "C[C@@H]1C[C@H]2[C@@H]3CCC4=CC(=O)C=C[C@]4(C)[C@@]3(F)[C@@H](O)C[C@]2(C)[C@@]1(O)C(=O)CO", "AC50": "inconclusive: 50 µM"},
      {"smiles": "CCCCCC(C)(CC)C(=O)NC", "note": "(stereo unspecified)", "outcome": "inactive"},
      {"smiles": "C[C@@H]1CC[C@@H](C(C)(C)O)[C@H](O)C1", "AC50": "inconclusive: 50 µM"}
    ]}
  ]
}
